Compound in the test: CC1Cc2ccccc2N1C(=O)C1CCCN(C1)C(=O)CCl (mixture of isomers) [TRIM25 ligand 11 (diastereomer mixture)]
Nature of the test: probe-labelled cysteine peptide fold change vs DMSO (competition) (log2 fold change); higher = less target engagement (more negative = stronger competition). Conditions: THP-1, incubation time: 4 h.

By UniProt entry, the sequences of proteins in these tests, tags left out. Where a name states a change or a piece, a line headed by the entry shows the natural chain unless it says otherwise.
UniProt P00390: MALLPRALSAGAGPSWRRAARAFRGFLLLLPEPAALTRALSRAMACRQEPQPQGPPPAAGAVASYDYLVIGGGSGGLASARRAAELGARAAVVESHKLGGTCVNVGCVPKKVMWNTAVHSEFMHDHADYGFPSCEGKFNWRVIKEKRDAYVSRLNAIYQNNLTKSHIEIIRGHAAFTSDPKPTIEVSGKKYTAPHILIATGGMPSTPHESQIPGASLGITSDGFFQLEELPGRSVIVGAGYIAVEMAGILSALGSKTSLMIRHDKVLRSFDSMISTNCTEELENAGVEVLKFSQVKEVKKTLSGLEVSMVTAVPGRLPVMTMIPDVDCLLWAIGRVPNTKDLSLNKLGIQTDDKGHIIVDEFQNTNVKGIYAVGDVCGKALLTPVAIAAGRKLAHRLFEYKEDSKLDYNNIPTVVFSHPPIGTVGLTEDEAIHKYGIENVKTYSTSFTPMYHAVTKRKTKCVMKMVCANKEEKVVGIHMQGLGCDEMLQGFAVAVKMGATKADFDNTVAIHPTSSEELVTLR
UniProt Q9UKN8: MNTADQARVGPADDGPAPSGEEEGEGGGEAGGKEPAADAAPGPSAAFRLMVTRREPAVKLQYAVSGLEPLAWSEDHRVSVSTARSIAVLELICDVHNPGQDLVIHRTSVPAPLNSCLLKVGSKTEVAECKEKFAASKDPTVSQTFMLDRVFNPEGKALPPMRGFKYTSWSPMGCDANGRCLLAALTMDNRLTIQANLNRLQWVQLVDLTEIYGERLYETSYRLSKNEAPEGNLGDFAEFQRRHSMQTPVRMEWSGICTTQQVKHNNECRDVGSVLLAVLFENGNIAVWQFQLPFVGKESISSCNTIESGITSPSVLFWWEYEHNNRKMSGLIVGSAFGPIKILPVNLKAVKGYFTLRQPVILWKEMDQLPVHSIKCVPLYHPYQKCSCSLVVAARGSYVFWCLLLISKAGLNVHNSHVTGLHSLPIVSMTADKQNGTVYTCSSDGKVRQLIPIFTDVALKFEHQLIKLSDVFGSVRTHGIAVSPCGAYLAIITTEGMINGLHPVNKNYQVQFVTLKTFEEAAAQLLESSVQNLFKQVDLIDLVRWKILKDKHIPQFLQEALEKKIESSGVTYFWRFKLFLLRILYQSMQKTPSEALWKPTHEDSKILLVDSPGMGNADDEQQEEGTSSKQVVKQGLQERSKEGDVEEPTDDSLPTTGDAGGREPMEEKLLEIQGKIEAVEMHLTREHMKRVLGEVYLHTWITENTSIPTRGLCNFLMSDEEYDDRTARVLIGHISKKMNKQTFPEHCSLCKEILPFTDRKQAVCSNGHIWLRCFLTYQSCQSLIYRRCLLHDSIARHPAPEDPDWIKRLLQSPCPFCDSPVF
UniProt P40939: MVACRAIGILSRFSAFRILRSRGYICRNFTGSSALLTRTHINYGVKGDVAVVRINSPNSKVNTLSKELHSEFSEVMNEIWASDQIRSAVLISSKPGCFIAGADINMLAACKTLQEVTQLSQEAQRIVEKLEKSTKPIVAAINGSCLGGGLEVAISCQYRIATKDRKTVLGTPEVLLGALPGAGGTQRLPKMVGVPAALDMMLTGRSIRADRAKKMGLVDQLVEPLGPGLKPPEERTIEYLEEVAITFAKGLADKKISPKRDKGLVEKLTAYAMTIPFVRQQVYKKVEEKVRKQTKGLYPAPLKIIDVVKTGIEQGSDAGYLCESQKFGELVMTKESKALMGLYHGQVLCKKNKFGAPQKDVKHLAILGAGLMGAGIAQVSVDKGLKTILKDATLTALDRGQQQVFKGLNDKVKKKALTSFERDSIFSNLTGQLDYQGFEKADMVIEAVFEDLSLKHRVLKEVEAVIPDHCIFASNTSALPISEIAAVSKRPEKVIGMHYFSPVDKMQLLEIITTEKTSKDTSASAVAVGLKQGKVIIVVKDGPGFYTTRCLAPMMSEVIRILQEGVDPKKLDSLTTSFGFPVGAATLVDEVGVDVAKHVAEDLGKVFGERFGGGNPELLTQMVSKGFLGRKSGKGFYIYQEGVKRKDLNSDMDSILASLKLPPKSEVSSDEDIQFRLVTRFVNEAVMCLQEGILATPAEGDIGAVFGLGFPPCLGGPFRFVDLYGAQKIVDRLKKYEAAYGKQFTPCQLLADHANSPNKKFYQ
UniProt P21266: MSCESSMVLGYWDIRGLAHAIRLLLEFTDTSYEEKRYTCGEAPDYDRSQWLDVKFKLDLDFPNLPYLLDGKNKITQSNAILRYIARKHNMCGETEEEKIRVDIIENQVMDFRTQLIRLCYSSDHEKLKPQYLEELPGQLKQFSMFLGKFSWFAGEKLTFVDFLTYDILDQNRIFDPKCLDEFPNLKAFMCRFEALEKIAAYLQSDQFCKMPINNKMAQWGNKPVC
UniProt O94927: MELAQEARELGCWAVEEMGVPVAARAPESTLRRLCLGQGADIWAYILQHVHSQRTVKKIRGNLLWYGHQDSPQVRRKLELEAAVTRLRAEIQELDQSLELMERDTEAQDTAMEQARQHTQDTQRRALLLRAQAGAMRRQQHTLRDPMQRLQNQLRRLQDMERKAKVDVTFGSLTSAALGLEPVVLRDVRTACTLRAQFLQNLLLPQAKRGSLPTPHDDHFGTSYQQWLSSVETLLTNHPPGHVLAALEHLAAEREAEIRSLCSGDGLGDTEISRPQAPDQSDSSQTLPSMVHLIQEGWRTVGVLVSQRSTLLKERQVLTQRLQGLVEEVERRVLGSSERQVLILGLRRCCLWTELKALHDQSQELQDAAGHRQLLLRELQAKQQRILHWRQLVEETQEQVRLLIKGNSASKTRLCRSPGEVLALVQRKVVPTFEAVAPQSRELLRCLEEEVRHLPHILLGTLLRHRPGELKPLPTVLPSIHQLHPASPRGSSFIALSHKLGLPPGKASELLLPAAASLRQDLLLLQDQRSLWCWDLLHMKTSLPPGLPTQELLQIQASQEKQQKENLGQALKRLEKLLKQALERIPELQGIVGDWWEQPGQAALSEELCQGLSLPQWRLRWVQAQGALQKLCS
UniProt Q13889: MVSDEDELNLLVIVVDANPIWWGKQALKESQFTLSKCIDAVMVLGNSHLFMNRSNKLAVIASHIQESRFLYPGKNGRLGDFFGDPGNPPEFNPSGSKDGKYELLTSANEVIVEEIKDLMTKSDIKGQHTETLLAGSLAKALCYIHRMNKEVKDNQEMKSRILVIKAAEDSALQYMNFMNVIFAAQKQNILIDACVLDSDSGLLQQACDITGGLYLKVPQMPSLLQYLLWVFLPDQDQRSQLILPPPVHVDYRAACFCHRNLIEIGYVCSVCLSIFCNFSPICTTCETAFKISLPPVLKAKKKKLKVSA
UniProt P78347: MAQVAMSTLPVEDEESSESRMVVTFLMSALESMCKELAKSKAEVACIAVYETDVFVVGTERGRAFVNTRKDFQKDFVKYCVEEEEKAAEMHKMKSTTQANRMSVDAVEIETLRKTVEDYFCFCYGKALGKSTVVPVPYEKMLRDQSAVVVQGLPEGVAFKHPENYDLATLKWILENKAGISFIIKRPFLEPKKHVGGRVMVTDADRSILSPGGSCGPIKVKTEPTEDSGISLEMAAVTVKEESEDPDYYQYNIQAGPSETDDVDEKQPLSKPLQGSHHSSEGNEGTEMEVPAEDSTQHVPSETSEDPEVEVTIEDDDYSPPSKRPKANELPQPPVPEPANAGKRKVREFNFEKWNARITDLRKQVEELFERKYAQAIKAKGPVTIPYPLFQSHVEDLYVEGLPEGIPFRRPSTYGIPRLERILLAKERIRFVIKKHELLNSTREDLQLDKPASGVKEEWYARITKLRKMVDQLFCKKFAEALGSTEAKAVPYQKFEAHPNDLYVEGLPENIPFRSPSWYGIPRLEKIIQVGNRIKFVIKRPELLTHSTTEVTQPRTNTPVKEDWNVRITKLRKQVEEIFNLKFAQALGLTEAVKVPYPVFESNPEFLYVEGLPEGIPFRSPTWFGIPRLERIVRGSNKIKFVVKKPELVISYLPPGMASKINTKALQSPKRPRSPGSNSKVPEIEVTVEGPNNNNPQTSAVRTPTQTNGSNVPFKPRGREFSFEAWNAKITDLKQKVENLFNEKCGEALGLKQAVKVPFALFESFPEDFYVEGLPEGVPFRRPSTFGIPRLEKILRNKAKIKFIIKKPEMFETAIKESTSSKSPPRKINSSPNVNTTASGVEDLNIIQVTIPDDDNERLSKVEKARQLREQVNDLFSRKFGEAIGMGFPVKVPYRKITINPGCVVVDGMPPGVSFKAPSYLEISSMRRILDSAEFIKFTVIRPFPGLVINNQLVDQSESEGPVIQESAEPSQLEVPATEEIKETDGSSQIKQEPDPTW
UniProt P13807: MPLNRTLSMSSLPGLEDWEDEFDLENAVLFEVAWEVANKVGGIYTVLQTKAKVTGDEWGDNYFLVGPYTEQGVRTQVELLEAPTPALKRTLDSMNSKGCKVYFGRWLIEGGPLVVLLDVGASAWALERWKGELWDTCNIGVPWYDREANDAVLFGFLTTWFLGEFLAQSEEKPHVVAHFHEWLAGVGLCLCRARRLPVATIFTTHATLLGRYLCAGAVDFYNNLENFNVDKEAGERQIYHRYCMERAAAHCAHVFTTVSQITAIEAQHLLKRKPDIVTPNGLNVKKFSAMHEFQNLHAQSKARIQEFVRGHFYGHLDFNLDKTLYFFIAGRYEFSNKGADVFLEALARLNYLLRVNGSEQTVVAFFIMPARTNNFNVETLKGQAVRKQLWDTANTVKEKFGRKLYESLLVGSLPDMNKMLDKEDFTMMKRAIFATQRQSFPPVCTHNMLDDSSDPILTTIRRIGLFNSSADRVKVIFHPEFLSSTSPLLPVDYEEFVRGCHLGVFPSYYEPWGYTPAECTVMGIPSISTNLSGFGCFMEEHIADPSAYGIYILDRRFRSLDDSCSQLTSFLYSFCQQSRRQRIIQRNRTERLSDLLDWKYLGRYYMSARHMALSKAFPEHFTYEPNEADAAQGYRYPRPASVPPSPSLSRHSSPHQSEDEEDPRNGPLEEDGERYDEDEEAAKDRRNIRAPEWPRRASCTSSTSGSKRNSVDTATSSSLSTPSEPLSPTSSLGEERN
UniProt P25098: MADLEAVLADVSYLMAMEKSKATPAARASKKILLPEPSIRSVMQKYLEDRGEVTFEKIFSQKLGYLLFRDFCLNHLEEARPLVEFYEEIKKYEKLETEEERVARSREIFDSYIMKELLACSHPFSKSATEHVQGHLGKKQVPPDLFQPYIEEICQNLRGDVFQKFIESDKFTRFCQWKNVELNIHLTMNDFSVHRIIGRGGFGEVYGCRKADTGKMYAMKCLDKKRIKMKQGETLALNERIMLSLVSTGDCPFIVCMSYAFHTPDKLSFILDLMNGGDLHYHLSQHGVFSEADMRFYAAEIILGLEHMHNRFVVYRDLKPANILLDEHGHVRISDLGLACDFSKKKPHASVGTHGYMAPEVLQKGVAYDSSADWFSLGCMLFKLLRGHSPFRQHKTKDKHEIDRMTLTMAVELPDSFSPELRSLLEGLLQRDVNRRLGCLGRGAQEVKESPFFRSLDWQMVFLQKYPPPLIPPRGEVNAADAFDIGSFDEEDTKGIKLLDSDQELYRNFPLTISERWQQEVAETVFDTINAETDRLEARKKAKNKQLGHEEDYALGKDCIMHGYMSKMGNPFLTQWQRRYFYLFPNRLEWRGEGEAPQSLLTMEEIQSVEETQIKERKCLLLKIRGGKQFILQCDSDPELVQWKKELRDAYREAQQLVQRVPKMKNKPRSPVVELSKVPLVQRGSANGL
UniProt Q9Y5Q9: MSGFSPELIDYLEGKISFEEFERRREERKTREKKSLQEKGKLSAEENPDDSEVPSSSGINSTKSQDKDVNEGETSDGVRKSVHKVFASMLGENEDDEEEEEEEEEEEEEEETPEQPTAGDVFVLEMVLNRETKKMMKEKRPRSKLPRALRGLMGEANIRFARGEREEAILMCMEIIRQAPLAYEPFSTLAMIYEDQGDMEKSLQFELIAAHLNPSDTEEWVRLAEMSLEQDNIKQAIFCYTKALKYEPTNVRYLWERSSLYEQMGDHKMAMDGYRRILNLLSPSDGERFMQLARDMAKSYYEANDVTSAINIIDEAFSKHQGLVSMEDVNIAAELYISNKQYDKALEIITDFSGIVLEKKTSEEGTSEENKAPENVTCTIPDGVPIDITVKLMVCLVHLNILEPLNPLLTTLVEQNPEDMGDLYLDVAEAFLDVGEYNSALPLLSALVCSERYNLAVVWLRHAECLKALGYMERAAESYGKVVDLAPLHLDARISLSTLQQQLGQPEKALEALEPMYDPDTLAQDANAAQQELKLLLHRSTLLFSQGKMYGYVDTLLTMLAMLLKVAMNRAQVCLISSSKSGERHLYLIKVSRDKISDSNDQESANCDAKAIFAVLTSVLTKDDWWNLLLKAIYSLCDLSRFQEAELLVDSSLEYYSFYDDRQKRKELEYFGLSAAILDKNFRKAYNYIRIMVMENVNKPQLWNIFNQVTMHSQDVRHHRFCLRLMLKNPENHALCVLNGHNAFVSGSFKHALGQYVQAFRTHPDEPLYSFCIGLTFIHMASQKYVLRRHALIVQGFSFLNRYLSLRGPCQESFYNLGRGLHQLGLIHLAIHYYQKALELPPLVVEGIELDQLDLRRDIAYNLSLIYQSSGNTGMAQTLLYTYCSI

The other results are listed elsewhere or left out.

We go through 66 targets from the supplement of paper PMC12067093, “Discovery and optimisation of a covalent ligand for TRIM25 and its application to targeted protein ubiquitination” (Chemical Science, 2025).
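Note: competitive chemoproteomic profiling in live THP-1 cells with an iodoacetamide desthiobiotin (IA-DTB) probe, comparing probe-labelled peptide intensities in compound-treated cells against DMSO-treated controls.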

“GSTCD_Q8NEC7_449_IVDFCSGGGHVGIVLAHMLPSCQVTLIENK (UniProt Q8NEC7)”: the “probe-labelled cysteine peptide fold change” value was -0.016 (10 µM) and 0.0688 (50 µM).
For “GSTM4_Q03013_174_IFEPNCLDAFPNLK (UniProt Q03013)”, in that order: 0.295 and 0.161.
For “GTF2B_Q00403_15_VTCPNHPDAILVEDYR (UniProt Q00403)”, in that order: -0.116 and -0.0934.
For “GSR_P00390_377_GIYAVGDVCGK (UniProt P00390)” the same measures were 0.0097 and 0.109.
Consider “GTF3C4_Q9UKN8_764_QAVCSNGHIWLR (UniProt Q9UKN8)”, for which the “probe-labelled cysteine peptide fold change” value was 0.0218 (10 µM) and -0.0524 (50 µM).
Consider “GTF3C5_Q9Y5Q8_432_NDGAENSCTER (UniProt Q9Y5Q8)”, for which the “probe-labelled cysteine peptide fold change” value reads like this: (10 µM) 0.333; (50 µM) -0.445.
For “H6PD_O95479_393_HWAAAQSQCLPR (UniProt O95479)” the same measures were -0.0176 and 0.0125.
For “HAT1_O14929_101_VDENFDCVEADDVEGK (UniProt O14929)” the same measures were 0.145 and 0.106.
For “HADHA_P40939_349_ALMGLYHGQVLCKK (UniProt P40939)”, in that order: -0.452 and -0.365.
Regarding “GTF3A_Q92664_62_LDAHLCK (UniProt Q92664)”, the “probe-labelled cysteine peptide fold change” value by setting is: (10 µM) -0.0638; (50 µM) -0.00835.
For “GSK3B_P49841_76_LCDSGELVAIKK (UniProt P49841)”, in that order: -0.205 and -0.0841.
For “HARS_P12081_379_KVPCVGLSIGVER (UniProt P12081)” the same measures were -0.0416 and -0.0375.
For “GPSM1_Q86YR5_128_FDEAAVCCQR (UniProt Q86YR5)” the same measures were -0.109 and -0.0486.
“HADHA_P40939_97_PGCFIAGADINMLAACK (UniProt P40939)”: the “probe-labelled cysteine peptide fold change” value is, setting by setting: (10 µM) -0.134; (50 µM) 0.16.
For “GSTM3_P21266_91_KHNMCGETEEEK (UniProt P21266)” the same measures were -0.0795 and -0.0979.
For “GTF2IRD1_Q9UHL9_277_QEAPSCPLAPSDLGLSR (UniProt Q9UHL9)”, in that order: 0.118 and -0.243.
For “HAUS5_O94927_446_CLEEEVR (UniProt O94927)”, in that order: -0.00691 and -0.048.
As for “GSPT1_P15170_327_LESGSICK (UniProt P15170)”, the “probe-labelled cysteine peptide fold change” value runs as follows: (10 µM) 0.118; (50 µM) 0.0281.
For “GPT2_Q8TD30_311_LFLLADEVYQDNVYSPDCR (UniProt Q8TD30)” the same measures were 0.0835 and -0.272.
For “H6PD_O95479_663_LCAEEDQGAQIYAR (UniProt O95479)”, in that order: 0.0447 and 0.138.
Take “GPKOW_Q92917_394_MIIEDVLSPDTCVCR (UniProt Q92917)”: the “probe-labelled cysteine peptide fold change” value was 0.0151 (10 µM) and -0.149 (50 µM).
“GTF3C2_Q8WUA4_469_AHFVYGIACDNGCIWDLK (UniProt Q8WUA4)”: the “probe-labelled cysteine peptide fold change” value reads like this: (10 µM) 0.207; (50 µM) 0.215.
For “GTF2H3_Q13889_255_AACFCHR (UniProt Q13889)”, in that order: 0.0404 and 0.171.
As for “HAUS2_Q9NVX0_43_TVSCFVNFTR (UniProt Q9NVX0)”, the “probe-labelled cysteine peptide fold change” value is, setting by setting: (10 µM) 0.065; (50 µM) 0.0626.
For “GRHPR_Q9UBQ7_288_NCVILPHIGSATHR (UniProt Q9UBQ7)” the same measures were 0.0388 and 0.0258.
For “GTF2I_P78347_475_MVDQLFCK (UniProt P78347)”, in that order: 0.129 and 0.168.
For “GTF3C5_Q9Y5Q8_75_DPYCHPVCANR (UniProt Q9Y5Q8)”, in that order: 0.361 and 0.133.
On to “GYS1_P13807_564_SLDDSCSQLTSFLYSFCQQSR (UniProt P13807)”, for which the “probe-labelled cysteine peptide fold change” value (10 µM) is -0.327 and the “probe-labelled cysteine peptide fold change” value (50 µM) was -0.0499.
For “HAUS5_O94927_350_CCLWTELK (UniProt O94927)” the same measures were -0.0545 and 0.214.
For “GYS1_P13807_575_SLDDSCSQLTSFLYSFCQQSR (UniProt P13807)” the same measures were -0.156 and 0.226.
For “GRK2_P25098_120_ELLACSHPFSK (UniProt P25098)”, in that order: -0.00362 and -0.0684.
With “H6PD_O95479_623_CVPLSDPESNFQGLQAHLLQHVR (UniProt O95479)”, the “probe-labelled cysteine peptide fold change” value by setting is: (10 µM) -0.0106; (50 µM) 0.195.
For “GSTCD_Q8NEC7_357_LLTTSTEQHPNLCEVPGVEEQSDPLFIGGPRPTMAK (UniProt Q8NEC7)”, in that order: 0.0486 and 0.0327.
For “GTF3C1_Q12789_544_ACQSLASR (UniProt Q12789)” the same measures were -0.0578 and -0.212.
For “GPX1_P07203_49_VLLIENVASLUGTTVR (UniProt P07203)” the same measures were 0.026 and 0.0876.
For HAT1_O14929_168_ADMTCR (UniProt O14929), the “probe-labelled cysteine peptide fold change” value is, setting by setting: (10 µM) 0.0223; (50 µM) 0.0285.
For “GRK2_P25098_72_DFCLNHLEEARPLVEFYEEIK (UniProt P25098)” the same measures were 0.0258 and -0.0695.
As for “GSTM1_P09488_78_ITQSNAILCYIAR (UniProt P09488)”, the “probe-labelled cysteine peptide fold change” value is, setting by setting: (10 µM) 0.021; (50 µM) 0.0511.
For “GTF3C3_Q9Y5Q9_810_GPCQESFYNLGR (UniProt Q9Y5Q9)”, in that order: 0.136 and 0.284.
For “GSS_P48637_294_CPDIATQLAGTK (UniProt P48637)” the same measures were -0.0406 and -0.0273.
For “GSPT1_P15170_464_TAGTICLETFK (UniProt P15170)”, in that order: -0.0521 and 0.0405.
Turning to “GTF2H3_Q13889_142_ALCYIHR (UniProt Q13889)”, the “probe-labelled cysteine peptide fold change” value by setting is: (10 µM) 0.00371; (50 µM) 0.0325.
Consider “HAGH_Q16775_219_VYCGHEYTINNLK (UniProt Q16775)”, for which the “probe-labelled cysteine peptide fold change” value (10 µM) was 0.0833 and the “probe-labelled cysteine peptide fold change” value (50 µM) amounted to 0.0446.
For “GRPEL1_Q9HAV7_108_LYGIQAFCK (UniProt Q9HAV7)”, in that order: -0.247 and -0.258.
For “H6PD_O95479_95_DMAPSHCAEHK (UniProt O95479)” the same measures were -0.085 and -0.0387.
For “GTF3C4_Q9UKN8_268_HNNECR (UniProt Q9UKN8)”, the “probe-labelled cysteine peptide fold change” value (10 µM) was 0.179 and the “probe-labelled cysteine peptide fold change” value (50 µM) turned out to be 0.5.
Take “GSR_P00390_484_VVGIHMQGLGCDEMLQGFAVAVK (UniProt P00390)”: the “probe-labelled cysteine peptide fold change” value was 0.00688 (10 µM) and -0.0299 (50 µM).
In the case of “HACE1_Q8IYU2_508_IIFDHFHFLLECPELMSR (UniProt Q8IYU2)”, the “probe-labelled cysteine peptide fold change” value is -0.0264 (10 µM) and 0.0704 (50 µM).
For “GPX7_Q96SL4_86_DLGPHHFNVLAFPCNQFGQQEPDSNK (UniProt Q96SL4)” the same measures were -0.112 and 0.00112.
For “GTF2I_P78347_745_CGEALGLK (UniProt P78347)” the same measures were 0.0477 and -0.158.
For “GSPT1_P15170_381_GIEEEEILPGFILCDPNNLCHSGR (UniProt P15170)”, in that order: 0.0954 and 0.384.
In the case of “GTF3C3_Q9Y5Q9_239_QAIFCYTK (UniProt Q9Y5Q9)”, the “probe-labelled cysteine peptide fold change” value is -0.0318 (10 µM) and 0.0142 (50 µM).
In the case of “GSDME_O60443_168_CVISEHMQVEEK (UniProt O60443)”, the “probe-labelled cysteine peptide fold change” value by setting is: (10 µM) 0.0837; (50 µM) -0.0817.
For “H2AFY_O75367_286_FVIHCNSPVWGADKCEELLEK (UniProt O75367)”, in that order: -0.152 and -0.0526.
Consider “GSR_P00390_467_MVCANKEEK (UniProt P00390)”, for which the “probe-labelled cysteine peptide fold change” value by setting is: (10 µM) -0.139; (50 µM) -0.0254.
For “GRB10_Q13322_363_QYNAPTDHGLCIKPNK (UniProt Q13322)”, in that order: 0.0377 and -0.095.
For “GTF3C1_Q12789_1977_ERDCESVCFIGRPWR (UniProt Q12789)”, in that order: -0.0153 and -0.00454.
For “GTPBP10_A4D1E9_167_SSLLSCVSHAK (UniProt A4D1E9)”, in that order: 0.0653 and -0.032.
Take “GSS_P48637_409_IEPEPFENCLLRPGSPAR (UniProt P48637)”: the “probe-labelled cysteine peptide fold change” value was 0.0168 (10 µM) and -0.0726 (50 µM).
As for “GSDMD_P57764_268_CLHNFLTDGVPAEGAFTEDFQGLR (UniProt P57764)”, the “probe-labelled cysteine peptide fold change” value is 0.417 (10 µM) and 0.546 (50 µM).
In the case of “GRN_P28799_165+171_VHCCPHGAFCDLVHTR (UniProt P28799)”, the “probe-labelled cysteine peptide fold change” value was found to be 0.198 (10 µM) and 0.0803 (50 µM).
For “HAT1_O14929_27_CNTNTAIELK (UniProt O14929)” the same measures were -0.0371 and -0.222.
For “GTF2I_P78347_903_ITINPGCVVVDGMPPGVSFK (UniProt P78347)”, the “probe-labelled cysteine peptide fold change” value (10 µM) was 0.0306 and the “probe-labelled cysteine peptide fold change” value (50 µM) was -0.0743.
For “GSDMD_P57764_268_CLHNFLTDGVPAEGAFTEDFQGLRAEVETISK (UniProt P57764)”, in that order: 0.377 and 0.487.
For “GSKIP_Q9P0R6_59_CADDVAYINVETK (UniProt Q9P0R6)”, in that order: 0.0511 and 0.135.
For “GTF2H1_P32780_246_DLFAECAK (UniProt P32780)” the same measures were 0.00813 and 0.0195.
